{"source": "PubChem BioAssay AID1508588 (Peter MacCallum Cancer Centre, 2020)", "screen": "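Genome-wide search for knock-downs that heighten vemurafenib action in melanoma cells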 (primary screen)", "cell system": "human WM266.4 melanoma cells (BRAF V600 mutant)", "reagents": "siRNA pool against human genes, 40 nM", "time to read-out": "96 h from transfection to read-out", "challenge": "vemurafenib 300 nM (about IC25), added 48 h after transfection, for 48 h; comparison arm got DMSO vehicle only", "measured": "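Cell gain (DAPI nuclei at end minus before drug, mean of two replicates) and medium lactate by absorbance per cell, both as ratio to non-targeting siRNA, also grouped into fold-change classes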", "scale": "cell gain with vemurafenib: higher = more cell gain than with non-targeting siRNA; lactate per cell with vemurafenib: higher = more lactate made per cell", "call rule": "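a knock-down counts as enhancing when its fold-change classes with vehicle and with vemurafenib, taken together, show a stronger drug effect on cell gain or lactate per cell; exact class pairs not stated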", "meaning of the calls": "active = enhances vemurafenib effect; inactive = no enhancement seen", "note": "Shown is a random part of about 18,000 reagents tested. 790 of them (4.4%) count as active. 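Calls rest on a combination of fold-change classes in drug and vehicle arms, not all shown here.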 Unmarked entries are inactive. A reagent listed more than once was tested more than once; the source does not tell the runs apart. Reagent sequences are not shown."}
{"Target gene":"UBA2","cell gain with vemurafenib":0.29,"lactate per cell with vemurafenib":1.12}
{"Target gene":"GPR31","cell gain with vemurafenib":0.94,"lactate per cell with vemurafenib":0.94}
{"Target gene":"MAPK8IP3","cell gain with vemurafenib":0.57,"lactate per cell with vemurafenib":1.17}
{"Target gene":"RPL36","cell gain with vemurafenib":-0.05,"lactate per cell with vemurafenib":1.9}
{"Target gene":"BCO1","cell gain with vemurafenib":0.82,"lactate per cell with vemurafenib":0.68}
{"Target gene":"USP15","cell gain with vemurafenib":0.43,"lactate per cell with vemurafenib":1.18}
{"Target gene":"CNGB3","cell gain with vemurafenib":1.12,"lactate per cell with vemurafenib":0.4}
{"Target gene":"DCAF7","cell gain with vemurafenib":0.4,"lactate per cell with vemurafenib":0.81}
{"Target gene":"TTLL8","cell gain with vemurafenib":0.29,"lactate per cell with vemurafenib":1.57}
{"Target gene":"STK40","cell gain with vemurafenib":0.55,"lactate per cell with vemurafenib":1.46}
{"Target gene":"STK40","cell gain with vemurafenib":0.56,"lactate per cell with vemurafenib":1.38}
{"Target gene":"FAM81A","cell gain with vemurafenib":0.64,"lactate per cell with vemurafenib":1.28}
{"Target gene":"MARCO","cell gain with vemurafenib":0.46,"lactate per cell with vemurafenib":1.04}
{"Target gene":"HMGN2","cell gain with vemurafenib":0.17,"lactate per cell with vemurafenib":1.87}
{"Target gene":"WDR59","cell gain with vemurafenib":0.59,"lactate per cell with vemurafenib":1.43}
{"Target gene":"GPAT2","cell gain with vemurafenib":0.66,"lactate per cell with vemurafenib":0.89}
{"Target gene":"DEPDC7","cell gain with vemurafenib":0.79,"lactate per cell with vemurafenib":0.75}
{"Target gene":"TMEM52","cell gain with vemurafenib":0.47,"lactate per cell with vemurafenib":0.43}
{"Target gene":"SEMA4C","cell gain with vemurafenib":0.82,"lactate per cell with vemurafenib":0.66}
{"Target gene":"MRPL13","cell gain with vemurafenib":0.46,"lactate per cell with vemurafenib":0.72}
{"Target gene":"HBS1L","cell gain with vemurafenib":0.51,"lactate per cell with vemurafenib":0.4}
{"Target gene":"SLC16A9","cell gain with vemurafenib":0.19,"lactate per cell with vemurafenib":1}

Reformatted: 5 of the entries above.
TMEM52 → cell gain with vemurafenib = 0.47; lactate per cell with vemurafenib = 0.43
SEMA4C → cell gain with vemurafenib = 0.82; lactate per cell with vemurafenib = 0.66
MRPL13 → cell gain with vemurafenib = 0.46; lactate per cell with vemurafenib = 0.72
HBS1L → cell gain with vemurafenib = 0.51; lactate per cell with vemurafenib = 0.4
SLC16A9 → cell gain with vemurafenib = 0.19; lactate per cell with vemurafenib = 1

More entries follow:
{"Target gene":"INVS","cell gain with vemurafenib":0.79,"lactate per cell with vemurafenib":0.75}
{"Target gene":"RNFT2","cell gain with vemurafenib":0.02,"lactate per cell with vemurafenib":1.06}
{"Target gene":"SPSB4","cell gain with vemurafenib":0.49,"lactate per cell with vemurafenib":0.44}
{"Target gene":"KRTAP5-10","cell gain with vemurafenib":0.62,"lactate per cell with vemurafenib":0.37}
{"Target gene":"CHRNB1","cell gain with vemurafenib":1.13,"lactate per cell with vemurafenib":0.54}
{"Target gene":"METTL14","cell gain with vemurafenib":0.46,"lactate per cell with vemurafenib":0.46}
{"Target gene":"LRRC10","cell gain with vemurafenib":0.65,"lactate per cell with vemurafenib":1.44}
{"Target gene":"METTL15","cell gain with vemurafenib":0.79,"lactate per cell with vemurafenib":0.94}
{"Target gene":"VARS2","cell gain with vemurafenib":0.51,"lactate per cell with vemurafenib":1.6}
{"Target gene":"ADPRHL1","cell gain with vemurafenib":0.91,"lactate per cell with vemurafenib":1.04}
{"Target gene":"PRKAR2A","cell gain with vemurafenib":0.43,"lactate per cell with vemurafenib":1.04}
{"Target gene":"ACADL","cell gain with vemurafenib":0.34,"lactate per cell with vemurafenib":2.58}
{"Target gene":"EXOSC4","cell gain with vemurafenib":0.2,"lactate per cell with vemurafenib":2.24}
{"Target gene":"UCK2","cell gain with vemurafenib":-0.01,"lactate per cell with vemurafenib":3.17}
{"Target gene":"DOK5","cell gain with vemurafenib":0.56,"lactate per cell with vemurafenib":0.56}
{"Target gene":"UBE2D4","cell gain with vemurafenib":0.94,"lactate per cell with vemurafenib":0.98}
{"Target gene":"APOH","cell gain with vemurafenib":0.55,"lactate per cell with vemurafenib":1.78}
{"Target gene":"CERK","cell gain with vemurafenib":0.34,"lactate per cell with vemurafenib":0.62}
